PubChem BioAssay AID1159584, Peter MacCallum Cancer Centre | 2016

Assay: 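Genes that CDH1-null MCF10A cells selectively depend on to survive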 (primary screen)
System: human MCF10A breast epithelial cells, parental and CDH1-null
Reagents: siRNA against human genes
Measured: 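ATP luminescence (CellTiter-Glo) viability per line relative to mean mock wells over all plates, and the ratio of CDH1-null to parental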
Scale: CDH1-null / parental viability ratio: higher = CDH1-null cells survive relatively better than parental; CDH1-null viability vs mock: higher = more viable CDH1-null cells; parental viability vs mock: higher = more viable parental cells
The deposit covers about 18,000 reagents; shown is a part drawn at random. Reagent sequences are not shown. Not given: the amount of reagent, the time to read-out.

target gene | CDH1-null / parental viability ratio | CDH1-null viability vs mock (fraction of mock) | parental viability vs mock (fraction of mock)
LIN52 | 1.1 | 0.53 | 0.48
ASB3 | 1.03 | 0.7 | 0.68
HUWE1 | 1.06 | 0.76 | 0.72
PLXNC1 | 1.22 | 0.66 | 0.54
MPEG1 | 1.08 | 0.83 | 0.77
FRAT2 | 1.01 | 0.95 | 0.94
TOGARAM1 | 0.69 | 0.59 | 0.86
NDUFS7 | 0.79 | 0.76 | 0.96
LRRC37A | 0.98 | 0.9 | 0.92
DVL2 | 1.11 | 0.7 | 0.63
KCNJ8 | 1.24 | 1.08 | 0.87
PPA2 | 1.18 | 0.92 | 0.78
ITGA4 | 0.98 | 1.07 | 1.09
PARP6 | 0.9 | 0.63 | 0.7
FNDC3A | 0.99 | 0.91 | 0.92
CNIH1 | 1.04 | 0.78 | 0.75
PPM1M | 1.66 | 0.96 | 0.58
CLPP | 0.86 | 0.57 | 0.66
SCAF11 | 0.82 | 0.62 | 0.76
EFCAB12 | 0.79 | 0.6 | 0.76
CACUL1 | 1.02 | 0.93 | 0.91
LSM14A | 0.88 | 0.42 | 0.48
KIF14 | 0.79 | 0.6 | 0.76
EPHA2 | 1.01 | 0.94 | 0.93
TRAF3IP3 | 1.22 | 0.78 | 0.64
XKR3 | 1.17 | 0.82 | 0.7
LRRC17 | 1.12 | 0.92 | 0.82
WDR24 | 1.01 | 0.95 | 0.94
USP3 | 1.2 | 0.72 | 0.6
KLRC1 | 1.32 | 0.74 | 0.56
TLE6 | 1.16 | 0.66 | 0.57
AARSD1 | 0.84 | 0.64 | 0.76
GRK6 | 0.98 | 0.86 | 0.88
NR2E1 | 0.81 | 0.73 | 0.9
BNIP3L | 0.82 | 0.64 | 0.78
CCR8 | 0.74 | 0.64 | 0.87
ZNF281 | 1.1 | 0.86 | 0.78
CTSB | 1.32 | 0.5 | 0.38
SLC16A2 | 0.87 | 0.98 | 1.12
NDUFAF2 | 1.17 | 0.81 | 0.69
COL5A3 | 1.04 | 0.86 | 0.83
KLHL23 | 1.12 | 0.93 | 0.83
ZSCAN1 | 1.12 | 0.92 | 0.82
KRT81 | 1.11 | 0.6 | 0.54
ZNG1A | 0.99 | 0.89 | 0.9
GPR39 | 0.74 | 0.61 | 0.82
LY6H | 1.24 | 0.99 | 0.8
NRM | 1.09 | 0.94 | 0.86
ORC4 | 1.02 | 0.84 | 0.82
SDHAF3 | 1 | 0.7 | 0.7
SPCS3 | 1.04 | 0.79 | 0.76
ZFX | 1.04 | 0.96 | 0.92
OR5AC2 | 1.1 | 0.92 | 0.84
PAEP | 1.11 | 0.99 | 0.89
MIS18A | 1.29 | 0.8 | 0.62
TACC2 | 0.72 | 0.62 | 0.86
SNX24 | 1.19 | 1.07 | 0.9
GRPEL1 | 0.79 | 0.49 | 0.62
FIRRM | 0.86 | 0.51 | 0.59
TAS1R1 | 1.21 | 0.92 | 0.76
MUC21 | 1.14 | 0.64 | 0.56
HCG27 | 1.24 | 1.23 | 0.99
GARIN4 | 0.97 | 0.68 | 0.7
C1QC | 0.72 | 0.53 | 0.74
MTCP1 | 0.9 | 0.56 | 0.62
KRT40 | 1.05 | 0.83 | 0.79
AKAP3 | 1.04 | 0.84 | 0.81
CLECL1 | 1.37 | 0.93 | 0.68

Laid out differently: results already given.
{"target gene": "BNIP3L", "CDH1-null / parental viability ratio": 0.82, "CDH1-null viability vs mock (fraction of mock)": 0.64, "parental viability vs mock (fraction of mock)": 0.78}
{"target gene": "CCR8", "CDH1-null / parental viability ratio": 0.74, "CDH1-null viability vs mock (fraction of mock)": 0.64, "parental viability vs mock (fraction of mock)": 0.87}
{"target gene": "ZNF281", "CDH1-null / parental viability ratio": 1.1, "CDH1-null viability vs mock (fraction of mock)": 0.86, "parental viability vs mock (fraction of mock)": 0.78}
{"target gene": "CTSB", "CDH1-null / parental viability ratio": 1.32, "CDH1-null viability vs mock (fraction of mock)": 0.5, "parental viability vs mock (fraction of mock)": 0.38}
{"target gene": "SLC16A2", "CDH1-null / parental viability ratio": 0.87, "CDH1-null viability vs mock (fraction of mock)": 0.98, "parental viability vs mock (fraction of mock)": 1.12}
{"target gene": "NDUFAF2", "CDH1-null / parental viability ratio": 1.17, "CDH1-null viability vs mock (fraction of mock)": 0.81, "parental viability vs mock (fraction of mock)": 0.69}
{"target gene": "COL5A3", "CDH1-null / parental viability ratio": 1.04, "CDH1-null viability vs mock (fraction of mock)": 0.86, "parental viability vs mock (fraction of mock)": 0.83}
{"target gene": "KLHL23", "CDH1-null / parental viability ratio": 1.12, "CDH1-null viability vs mock (fraction of mock)": 0.93, "parental viability vs mock (fraction of mock)": 0.83}
{"target gene": "ZSCAN1", "CDH1-null / parental viability ratio": 1.12, "CDH1-null viability vs mock (fraction of mock)": 0.92, "parental viability vs mock (fraction of mock)": 0.82}
{"target gene": "KRT81", "CDH1-null / parental viability ratio": 1.11, "CDH1-null viability vs mock (fraction of mock)": 0.6, "parental viability vs mock (fraction of mock)": 0.54}
